Measured values taken from PubChem BioAssay AID2551 (National Center for Advancing Translational Sciences (NCATS), 2010).
Where “and” joins values, the source holds several entries; their conditions need not be identical. Identical values can stand only once. About 17,000 (5.5%) of roughly 310,000 compounds were called active. This list was built around the results that the source calls inconclusive (neither active nor inactive); the mix of calls is not that of the screen. Calls follow the shape of the dose curve; as a rule, active = well fitted inhibition curve with a large enough effect; inconclusive = small, poorly fitted or top-dose-only effect, or effect the other way; inactive = no such curve, though single readings can be large or run the other way. Potencies of inconclusive entries are doubtful fits and often do not repeat.

The chains behind the UniProt entries cited, without tags or fusion partners. Where a name states a change or a piece, a line headed by the entry shows the natural chain unless it says otherwise.
UniProt P51450: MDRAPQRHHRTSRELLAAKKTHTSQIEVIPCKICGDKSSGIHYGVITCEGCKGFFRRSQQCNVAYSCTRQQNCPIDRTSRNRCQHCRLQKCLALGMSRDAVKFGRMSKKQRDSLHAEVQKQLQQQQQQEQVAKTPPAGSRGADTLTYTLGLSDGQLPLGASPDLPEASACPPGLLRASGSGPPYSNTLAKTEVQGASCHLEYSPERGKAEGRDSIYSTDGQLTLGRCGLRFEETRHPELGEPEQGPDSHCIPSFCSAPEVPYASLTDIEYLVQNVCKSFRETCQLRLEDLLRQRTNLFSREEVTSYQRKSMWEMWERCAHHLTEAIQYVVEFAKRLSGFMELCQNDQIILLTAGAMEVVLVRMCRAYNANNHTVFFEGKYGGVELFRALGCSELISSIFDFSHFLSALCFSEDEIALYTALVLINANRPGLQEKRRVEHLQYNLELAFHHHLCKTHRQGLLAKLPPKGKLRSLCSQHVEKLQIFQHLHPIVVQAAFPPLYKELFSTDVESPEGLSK

Biological target: Nuclear receptor ROR-gamma (Mus musculus) (UniProt P51450)
Assay: qHTS for inhibitors of ROR gamma transcriptional activity; also: nearly all actives have a fitted effect of over 60% in size
Settings: Drosophila S2 Gal4-RORgamma UAS-luciferase reporter, 20 h; activity change, negative = inhibition: at 53.6 µM (top of the series)
How it was run: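 Compounds are pin-transferred onto Drosophila Schneider cells expressing a copper-inducible Gal4–ROR gamma transactivation domain fusion. After 1 hr, copper sulfate is added to 700 uM final; luciferase is read 20 hr later.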
% is scaled to controls: 0 for no effect and ±100 for the full control effect; potency is read from the fitted curve at half-maximal effect.

Row | Compound | Potency | activity change, negative = inhibition
1 | N#Cc1cc(-c2ccccc2)nc(Oc2ccccc2)n1 | inactive | –
2 | CC(SC1=NCCS1)C(=O)Nc1nnc(-c2ccc(F)cc2)s1 (stereo not drawn) | active: 7.94 µM | –
3 | COc1ccc(C(=O)OCc2csc(C)n2)c(O)c1 | inconclusive: 17.8 µM [activator, single point] | –
4 | Cc1cccc(C)c1N/C=C/c1onc(C)c1[N+](=O)[O-] | inactive | –
5 | COC(=O)c1cc(-c2ccccc2)n(CC(=O)O)c1C | inconclusive: 35.5 µM [inhibitor, single point] | –
6 | Cc1ccc(C2C3C(=O)N(c4ccccc4)C(=O)C3N3CCCN23)cc1 (stereo not drawn) | inconclusive: 2.82 µM [inhibitor, partial curve] | –
7 | O=C(O)CCCn1c(O)c(C=C2N=c3ccccc3=N2)sc1=S | inactive | –
8 | O=C1c2ccccc2C(Nc2ccc(Cl)cn2)N1c1cccnc1 (stereo not drawn) | inactive | –
9 | Cc1cc(-c2cccs2)c2c(N)c(C(=O)c3ccc4c(c3)OCO4)sc2n1 | inactive | –
10 | O=C(NNC(=S)NCc1ccccc1)c1ccc(Br)o1 | active: 8.91 µM | –
11 | Clc1ccc(OCCn2cnc3ccccc32)c(Cl)c1 | inactive | –
12 | N/C(COc1cccc(C(F)(F)F)c1)=N\NC(=O)c1cccnc1Oc1ccccc1 | active: 0.501 µM | –
13 | Cc1ccccc1CSCCNC(=O)Nc1ccccc1 | inconclusive: 35.5 µM [activator, single point] | –
14 | CCC(=O)NC(c1ccc(Cl)cc1Cl)c1ccc2cccnc2c1O (stereo not drawn) | – | inactive: -0.937% [at 1.91 µM]
15 | Cc1ccc(NS(=O)(=O)c2cccc(C(=O)NCCc3c[nH]c4ccccc34)c2)c(C)c1 | inconclusive: 17.8 µM [activator, single point] | –
16 | O=c1cc(-c2ccccc2)oc2cc(O)c(O)c(O)c12 | active: 5.01 µM and active: 28.2 µM | –
17 | O=C(NNC(=S)Nc1ccccc1)c1ccncc1 | inconclusive: 3.55 µM [inhibitor, full curve, poor fit] | –
18 | c1nc(NCC2(N3CCOCC3)CCCCC2)c2ccsc2n1 | inconclusive: 0.794 µM [activator, single point] | –
19 | CCCn1c(=N)n(CC(=O)c2ccc([N+](=O)[O-])cc2)c2ccccc21 | active: 1.58 µM | –
20 | O=C1CCc2ccc(NS(=O)(=O)c3ccc(F)cc3)cc2N1 | inconclusive: 12.6 µM [activator, partial curve] | –
21 | O=C(Nc1cccn(Cc2cccc(F)c2)c1=O)NC1CCCCC1 | inconclusive: 15.8 µM [activator, partial curve] | –
22 | COc1ccccc1NC(=O)CC1CCCC1 | inactive | –
23 | COc1ccc(C2C(C#N)=C(N)N(c3ccccc3C#N)C3=C2C(=O)CCC3)cc1CN1CCCC1 (stereo not drawn) | inactive | –
